## Screening data

From PubChem BioAssay record AID504749 (NCATS, 2011).

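A panel of P. falciparum strains inside erythrocytes is exposed to compounds for three days, then a DNA-binding dye reports the amount of parasite DNA.
Each compound was titrated across a series from about 0.000037 to 29 µM.
The number is the fitted AC50, the concentration giving a half-maximal change in signal; a lower value means higher potency, whether the curve shows a decrease or an increase.
Calls follow the curve class and fit quality: every row here is inconclusive, covering signal-raising curves and weak, poorly fitted, partial or highest-dose-only inhibition curves.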

Values are in µM.
Every entry below has the call inconclusive.
Only part of the assay is shown, chiefly results filed as inconclusive.
A potency from a partial, single-point or poor curve is only a rough figure.
Some entries filed as inconclusive have a full curve.

- O=C(CCN1CCN2CCCC2C1)N1c2ccccc2Sc2ccc(Cl)cc21 (centres unmarked) [CP260] | potency 10 µM (inhibitor, single point)
- O=C(CCN1CCN2CCCC2C1)N1c2ccccc2Sc2ccc(Cl)cc21 (centres unmarked) [CP238] | potency 10 µM (inhibitor, single point)
- O=C(CCN1CCN2CCCC2C1)N1c2ccccc2Sc2ccc(Cl)cc21 (centres unmarked) [CP217] | potency 11.22 µM (inhibitor, partial curve)
- O=C(CCN1CCN2CCCC2C1)N1c2ccccc2Sc2ccc(Cl)cc21 (centres unmarked) [P93_24] | potency 10 µM (inhibitor, partial curve)
- O=C(CCN1CCN2CCCC2C1)N1c2ccccc2Sc2ccc(Cl)cc21 (centres unmarked) [AA1029] | potency 11.22 µM (inhibitor, partial curve)
- O=C(CCN1CCN2CCCC2C1)N1c2ccccc2Sc2ccc(Cl)cc21 (centres unmarked) [TAB109] | potency 19.95 µM (inhibitor, single point)
- O=C(CCN1CCN2CCCC2C1)N1c2ccccc2Sc2ccc(Cl)cc21 (centres unmarked) [ATS95] | potency 8.912 µM (inhibitor, partial curve)
- O=C(CCN1CCN2CCCC2C1)N1c2ccccc2Sc2ccc(Cl)cc21 (centres unmarked) [CP256] | potency 11.22 µM (inhibitor, single point)
- O=C(CCN1CCN2CCCC2C1)N1c2ccccc2Sc2ccc(Cl)cc21 (centres unmarked) [CP247] | potency 8.912 µM (inhibitor, partial curve, poor fit)
- O=C(CCN1CCN2CCCC2C1)N1c2ccccc2Sc2ccc(Cl)cc21 (centres unmarked) [PC15] | potency 7.943 µM (inhibitor, partial curve)
- O=C(CCN1CCN2CCCC2C1)N1c2ccccc2Sc2ccc(Cl)cc21 (centres unmarked) [CP191] | potency 5.012 µM (inhibitor, partial curve)
- O=C(CCN1CCN2CCCC2C1)N1c2ccccc2Sc2ccc(Cl)cc21 (centres unmarked) [SC27B] | potency 12.59 µM (inhibitor, partial curve, poor fit)
- O=C(CCN1CCN2CCCC2C1)N1c2ccccc2Sc2ccc(Cl)cc21 (centres unmarked) [PC49] | potency 11.22 µM (inhibitor, single point)
- O=C(CCN1CCN2CCCC2C1)N1c2ccccc2Sc2ccc(Cl)cc21 (centres unmarked) [AS120] | potency 11.22 µM (inhibitor, partial curve, poor fit)
- O=C(CCN1CCN2CCCC2C1)N1c2ccccc2Sc2ccc(Cl)cc21 (centres unmarked) [CP335] | potency 13.46 µM (inhibitor, single point)
- O=C(CCN1CCN2CCCC2C1)N1c2ccccc2Sc2ccc(Cl)cc21 (centres unmarked) [CP252] | potency 7.943 µM (inhibitor, partial curve)
- O=C(CCN1CCN2CCCC2C1)N1c2ccccc2Sc2ccc(Cl)cc21 (centres unmarked) [P94_40] | potency 12.59 µM (inhibitor, partial curve, poor fit)
- O=C(CCN1CCN2CCCC2C1)N1c2ccccc2Sc2ccc(Cl)cc21 (centres unmarked) [3D7] | potency 10 µM (inhibitor, single point)
- O=C(CCN1CCN2CCCC2C1)N1c2ccccc2Sc2ccc(Cl)cc21 (centres unmarked) [PAD] | potency 4.467 µM (inhibitor, partial curve)
- O=C(CCN1CCN2CCCC2C1)N1c2ccccc2Sc2ccc(Cl)cc21 (centres unmarked) [CP286] | potency 12.59 µM (inhibitor, partial curve)
- O=C(CCN1CCN2CCCC2C1)N1c2ccccc2Sc2ccc(Cl)cc21 (centres unmarked) [CP215] | potency 10.69 µM (inhibitor, partial curve, poor fit)
- O=C(CCN1CCN2CCCC2C1)N1c2ccccc2Sc2ccc(Cl)cc21 (centres unmarked) [PC26] | potency 3.381 µM (inhibitor, partial curve, poor fit)
- O=C(CCN1CCN2CCCC2C1)N1c2ccccc2Sc2ccc(Cl)cc21 (centres unmarked) [GB4] | potency 12 µM (inhibitor, partial curve)
- CC1=C(C/C=C(\C)CCCC(C)CCCC(C)CCCC(C)C)C(=O)c2ccccc2C1=O (centres unmarked) [ATS95] | potency 11.22 µM (inhibitor, partial curve)
- CC1=C(C/C=C(\C)CCCC(C)CCCC(C)CCCC(C)C)C(=O)c2ccccc2C1=O (centres unmarked) [N140] | potency 2.239 µM (inhibitor, full curve)
- CC1=C(C/C=C(\C)CCCC(C)CCCC(C)CCCC(C)C)C(=O)c2ccccc2C1=O (centres unmarked) [TAB165] | potency 10 µM (inhibitor, single point)
- CC1=C(C/C=C(\C)CCCC(C)CCCC(C)CCCC(C)C)C(=O)c2ccccc2C1=O (centres unmarked) [CP191] | potency 10 µM (inhibitor, single point)
- CC1=C(C/C=C(\C)CCCC(C)CCCC(C)CCCC(C)C)C(=O)c2ccccc2C1=O (centres unmarked) [CP286] | potency 17.78 µM (inhibitor, single point)

Once more, the final 2:

compound,condition,potency (µM),curve
CC1=C(C/C=C(\C)CCCC(C)CCCC(C)CCCC(C)C)C(=O)c2ccccc2C1=O (centres unmarked),CP191,10,"inhibitor, single point"
CC1=C(C/C=C(\C)CCCC(C)CCCC(C)CCCC(C)C)C(=O)c2ccccc2C1=O (centres unmarked),CP286,17.78,"inhibitor, single point"